The supplement of paper PMC6078165

Test system: MDAMB468
Assay: relative JC-1 red fluorescence (viability) vs pre-drug, coculture with fibroblast (fraction); higher = more viable cancer cells
Method: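 JC-1 labelled TNBC cells cocultured 1:1 (1,500 cells each) with CellTrace Violet stained primary or stromal fibroblasts in 384-well plates in FluoroBrite medium, treated with one of 42 anticancer drugs at 0.1, 1, 10 or 100 uM. JC-1 red fluorescence (mitochondrial integrity in cancer cells only) was read by plate reader every 8 h for 72 h. Values are normalised to each well's pre-drug value. The stock of one drug was tenfold lower, so its dose labels may be too high.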

N#Cc1ccc(C(c2ccc(C#N)cc2)n2cncn2)cc1 [Letrozole]
relative JC-1 red fluorescence
Conditions	8 h	16 h	24 h	32 h	40 h	48 h	56 h	64 h	72 h
10 µM, coculture fibroblast: C12385	0.8405	0.816	0.784	0.739	0.701	0.692	0.647	0.615	0.608
10 µM, coculture fibroblast: H6013	0.847	0.834	0.771	0.744	0.685	0.682	0.639	0.624	0.576
10 µM, coculture fibroblast: H6019	0.847	0.818	0.795	0.753	0.705	0.695	0.641	0.608	0.592
10 µM, coculture fibroblast: H6076	0.9066	0.961	0.869	0.777	0.785	0.832	0.812	0.79	0.7035
10 µM, coculture fibroblast: H6231	0.851	0.93	0.878	0.855	0.799	0.777	0.729	0.698	0.683
10 µM, coculture fibroblast: HADF	0.858	0.818	0.754	0.728	0.649	0.638	0.582	0.561	0.523
10 µM, coculture fibroblast: HCFa	0.867	0.8535	0.786	0.7502	0.6891	0.677	0.621	0.587	0.547
10 µM, coculture fibroblast: HCPF	0.853	0.944	0.87	0.868	0.79	0.7669	0.716	0.697	0.684
10 µM, coculture fibroblast: HHSteC	0.878	0.849	0.801	0.759	0.71	0.7	0.647	0.618	0.576
10 µM, coculture fibroblast: HMF	0.82725	0.943	0.851	0.8147	0.739	0.7044	0.65	0.626	0.605
10 µM, coculture fibroblast: HPFa	0.9133	0.877	0.819	0.764	0.72	0.708	0.642	0.604	0.522
10 µM, coculture fibroblast: HUF	0.8777	0.8209	0.7768	0.719	0.687	0.667	0.62	0.605	0.587
10 µM, coculture fibroblast: Hs5	0.759	0.99059	0.9242	0.866	0.799	0.768	0.72	0.668	0.677
10 µM, coculture fibroblast: Hs27A	0.862	0.834	0.769	0.765	0.707	0.693	0.643	0.613	0.566
10 µM, coculture fibroblast: Hs343T	0.8699	0.954	0.876	0.83	0.745	0.715	0.653	0.635	0.601
10 µM, coculture fibroblast: WS1	0.841	0.796	0.744	0.695	0.657	0.6316	0.5992	0.573	0.564
100 µM, coculture fibroblast: C12385	0.939	0.852	0.927	0.845	0.803	0.769	0.706	0.651	0.62
100 µM, coculture fibroblast: H6013	0.912	0.867	0.87	0.877	0.832	0.854	0.828	0.819	0.777
100 µM, coculture fibroblast: H6019	0.867	0.83	0.793	0.73	0.682	0.641	0.582	0.535	0.502
100 µM, coculture fibroblast: H6076	0.938	0.849	0.909	0.904	0.843	0.828	0.793	0.772	0.827
100 µM, coculture fibroblast: H6231	0.82	0.917	0.838	0.839	0.778	0.759	0.713	0.692	0.69
100 µM, coculture fibroblast: HADF	0.9149	0.888	0.8534	0.8577	0.806	0.80117	0.765	0.754	0.708
100 µM, coculture fibroblast: HCFa	0.8873	0.837	0.814	0.798	0.732	0.726	0.665	0.638	0.593
100 µM, coculture fibroblast: HCPF	0.904	0.858	0.936	0.935	0.854	0.83	0.784	0.767	0.754
100 µM, coculture fibroblast: HHSteC	0.928	0.8894	0.8642	0.85	0.81	0.816	0.7599	0.729	0.679
100 µM, coculture fibroblast: HMF	0.929	0.777	0.9215	0.9019	0.793	0.772	0.785	0.789	0.81
100 µM, coculture fibroblast: HPFa	0.945	0.908	0.8472	0.7934	0.739	0.733	0.657	0.618	0.542
100 µM, coculture fibroblast: HUF	0.9374	0.8558	0.8034	0.7334	0.6658	0.63439	0.59256	0.5488	0.518
100 µM, coculture fibroblast: Hs5	0.941	0.947	0.908	0.8899	0.8127	0.792	0.7522	0.718	0.735
100 µM, coculture fibroblast: Hs27A	0.862	0.805	0.767	0.767	0.698	0.678	0.64	0.607	0.58
100 µM, coculture fibroblast: Hs343T	0.909	0.964	0.92	0.901	0.814	0.794	0.742	0.716	0.703
100 µM, coculture fibroblast: WS1	0.908	0.8743	0.8283	0.7791	0.75	0.7	0.668	0.624	0.601

Values are relative to the signal before dosing, not to a vehicle control; the signal also falls without drug.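 Labels refer to human fibroblasts, largely primary: uterine (C12385, HUF), lung (H6013), bone (Hs27A), adrenal (HADF), skin (WS1), plus mammary HMF and breast cancer-associated Hs343T. Cancer lines are basal-like or mesenchymal-like triple-negative breast cancer. The paper counts as hits responses shifting over 3x the replicate standard deviation. The tissue of the other fibroblasts is not given here.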
